Data from patent US6613957.
These are yes or no findings as the source states them, for the method shown. Some entries that bind do so weakly or less than the wild type.

By UniProt entry, the sequences of proteins in these tests, tags left out. Residues count along the entry.
UniProt P02088, residues 2-147: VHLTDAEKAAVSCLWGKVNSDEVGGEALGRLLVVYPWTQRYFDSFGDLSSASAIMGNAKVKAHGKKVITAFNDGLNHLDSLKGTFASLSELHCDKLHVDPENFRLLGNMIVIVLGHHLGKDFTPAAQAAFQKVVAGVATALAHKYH
UniProt P69905, residues 2-142: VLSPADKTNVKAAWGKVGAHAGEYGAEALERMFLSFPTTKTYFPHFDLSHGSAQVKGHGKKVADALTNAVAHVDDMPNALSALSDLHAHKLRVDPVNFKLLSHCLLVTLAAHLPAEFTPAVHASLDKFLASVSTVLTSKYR
UniProt P01942, residues 2-142: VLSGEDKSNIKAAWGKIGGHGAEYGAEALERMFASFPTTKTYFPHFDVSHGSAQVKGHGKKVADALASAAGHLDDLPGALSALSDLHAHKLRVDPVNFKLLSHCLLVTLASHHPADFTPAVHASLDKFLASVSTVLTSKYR

Target: mouse β-globin polypeptide (endogenous) (mouse) (UniProt P02088)
Test: nondenaturing isoelectric focusing of transgenic mouse hemolysate; band excised and its chains identified on a denaturing cellulose acetate strip

human α-globin polypeptide (product of the human α1-globin transgene) (from UniProt P69905 2-142)
binding: binds

mouse α-globin polypeptide (endogenous) (from UniProt P01942 2-142)
binding: binds
